{"source": "patent US7531713B2", "about": "“Assay for toxin induced neuronal degeneration and viability in C. elegans” (Vanderbilt University, priority 2001, dated 2009)", "origin": "cited, not measured here", "target": "T1, CeDAT (Caenorhabditis elegans, UniProt Q03614)", "T1 sequence (Q03614 1-615)": "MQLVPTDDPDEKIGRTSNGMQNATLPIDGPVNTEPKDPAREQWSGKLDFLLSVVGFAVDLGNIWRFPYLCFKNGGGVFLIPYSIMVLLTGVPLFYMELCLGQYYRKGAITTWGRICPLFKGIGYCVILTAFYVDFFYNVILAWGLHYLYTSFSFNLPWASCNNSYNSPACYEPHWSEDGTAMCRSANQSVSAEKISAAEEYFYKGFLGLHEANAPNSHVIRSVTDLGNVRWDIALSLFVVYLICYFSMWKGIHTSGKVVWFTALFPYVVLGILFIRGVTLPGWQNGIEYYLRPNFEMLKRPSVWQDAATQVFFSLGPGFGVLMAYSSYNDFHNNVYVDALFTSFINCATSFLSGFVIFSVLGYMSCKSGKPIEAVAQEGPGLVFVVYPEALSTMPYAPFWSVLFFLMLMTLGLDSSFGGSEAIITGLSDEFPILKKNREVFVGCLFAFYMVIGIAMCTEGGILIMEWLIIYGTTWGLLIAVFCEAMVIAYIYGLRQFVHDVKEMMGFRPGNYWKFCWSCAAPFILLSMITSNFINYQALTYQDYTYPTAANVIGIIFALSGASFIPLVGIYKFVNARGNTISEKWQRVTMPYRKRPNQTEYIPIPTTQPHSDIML", "settings": "mammalian cells expressing CeDAT; potencies comparable to human DAT; cited from earlier work", "note": "For at least one compound, name, drawing or mass did not settle the structure.", "data": [{"molecule": "Fc1ccc(C(OCCN2CCN(CCCc3ccccc3)CC2)c2ccc(F)cc2)cc1", "note": "[GBR 12909]", "values": [{"measurement": "Sensitivity of CeDAT-mediated DA transport to antagonists/substrates", "result": "sensitive"}]}]}
